The source of these data is publication PMC5053694.

Chains of the proteins cited; added tags and fusions are not shown. Residues count along the entry.
UniProt Q9BYZ8, residues 23-158: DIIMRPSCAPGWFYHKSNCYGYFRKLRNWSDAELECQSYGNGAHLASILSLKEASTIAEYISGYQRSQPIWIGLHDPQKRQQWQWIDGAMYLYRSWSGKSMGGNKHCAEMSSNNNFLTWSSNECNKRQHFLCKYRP

Results are given in words; binding and its absence hold for the method and conditions named. In cells and extracts the contact can be indirect. Some binding calls cover weakened binding; strength is not graded here.

For this assay, the target named is REG4-Flag (regenerating islet-derived family, member 4, Flag-tagged) (human) (UniProt Q9BYZ8). The assay can be described thus: co-IP; whole cell extracts of SGC-7901/REG4-Flag immunoprecipitated with anti-Flag antibody, and of SGC-7901/GPR37-HA with anti-HA antibody; blots with anti-GPR37 and anti-REG4 antibody.

B1: G protein-coupled receptor 37 (GPR37) (receptor, UniProt O15354 27-613)
chain: ALGVAPASRNETCLGESCAPTVIQRRGRDAWGPGNSARDVLRARAPREEQGAAFLAGPSWDLPAAPGRDPAAGRGAEASAAGPPGPPTRPPGPWRWKGARGQEPSETLGRGNPTALQLFLQISEEEEKGPRGAGISGRSQEQSVKTVPGASDLFYWPRRAGKLQGSHHKPLSKTANGLAGHEGWTIALPGRALAQNGSLGEGIHEPGGPRRGNSTNRRVRLKNPFYPLTQESYGAYAVMCLSVVIFGTGIIGNLAVMCIVCHNYYMRSISNSLLANLAFWDFLIIFFCLPLVIFHELTKKWLLEDFSCKIVPYIEVASLGVTTFTLCALCIDRFRAATNVQMYYEMIENCSSTTAKLAVIWVGALLLALPEVVLRQLSKEDLGFSGRAPAERCIIKISPDLPDTIYVLALTYDSARLWWYFGCYFCLPTLFTITCSLVTARKIRKAEKACTRGNKRQIQLESQMNCTVVALTILYGFCIIPENICNIVTAYMATGVSQQTMDLLNIISQFLLFFKSCVTPVLLFCLCKPFSRAFMECCCCCCEECIQKSSTVTSDDNDNEYTTELELSPFSTIRREMSTFASVGTHC
In the case of B1, the binding result is reported as “binds”.
